Reference: publication PMC9935901, “B-lymphoid tyrosine kinase-mediated FAM83A phosphorylation elevates pancreatic tumorigenesis through interacting with β-catenin” (Signal Transduction and Targeted Therapy, 2023)

Biological target: GFP-tagged β-catenin Arm repeats 10–12
Assay: co-IP; HEK293T cells transfected for 48 h, IP and western blotting; with or without BLK, FAM83A wild type, Y138A or Y138D, saracatinib

binding: binds
B1: FAM83A (construct not stated) (protein, UniProt Q86UY5 1-434)
chain: MSRSRHLGKIRKRLEDVKSQWVRPARADFSDNESARLATDALLDGGSEAYWRVLSQEGEVDFLSSVEAQYIQAQAREPPCPPDTLGGAEAGPKGLDSSSLQSGTYFPVASEGSEPALLHSWASAEKPYLKEKSSATVYFQTVKHNNIRDLVRRCITRTSQVLVILMDVFTDVEIFCDILEAANKRGVFVCVLLDQGGVKLFQEMCDKVQISDSHLKNISIRSVEGEIYCAKSGRKFAGQIREKFIISDWRFVLSGSYSFTWLCGHVHRNILSKFTGQAVELFDEEFRHLYASSKPVMGLKSPRLVAPVPPGAAPANGRLSSSSGSASDRTSSNPFSGRSAGSHPGTRSVSASSGPCSPAAPHPPPPPRFQPHQGPWGAPSPQAHLSPRPHDGPPAAVYSNLGAYRPTRLQLEQLGLVPRLTPTWRPFLQASPHF

These are yes or no findings as the source states them, for the method shown. Binding seen in cells or lysates may run through a third protein. Binding can be weak; no strength is given.
